# Paper PMC4307257
# Chains of the proteins cited; added tags and fusions are not shown. Residues count along the entry.
# UniProt P05067, residues 672-713: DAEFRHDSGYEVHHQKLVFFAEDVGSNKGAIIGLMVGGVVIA
# No constants are given. Whether binding was seen depends on the method and setting. Binding seen in cells or lysates may run through a third protein. These calls come from enrichment with a bait or labelling near it, and not all partners need be listed. Where a sequence is shown, tags or fusion partners need not be part of it.
# B1: Glutathione S-transferase α-2 (protein, UniProt P04903 1-222)
# chain: MSGKPVLHYFNARGRMECIRWLLAAAGVEFEEKLIQSPEDLEKLKKDGNLMFDQVPMVEIDGMKLAQTRAILNYIATKYDLYGKDMKERALIDMYSEGILDLTEMIIQLVICPPDQREAKTALAKDRTKNRYLPAFEKVLKSHGQDYLVGNRLTRVDIHLLELLLYVEEFDASLLTSFPLLKAFKSRISSLPNVKKFLQPGSQRKPAMDAKQIEEARKVFKF
# B2: Fructose-bisphosphate aldolase A (protein, UniProt P05065 1-364)
# chain: MPHPYPALTPEQKKELADIAHRIVAPGKGILAADESTGSIAKRLQSIGTENTEENRRFYRQLLLTADDRVNPCIGGVILFHETLYQKADDGRPFPQVIKSKGGVVGIKVDKGVVPLAGTNGETTTQGLDGLSERCAQYKKDGADFAKWRCVLKIGEHTPSSLAIMENANVLARYASICQQNGIVPIVEPEILPDGDHDLKRCQYVTEKVLAAVYKALSDHHVYLEGTLLKPNMVTPGHACTQKFSNEEIAMATVTALRRTVPPAVPGVTFLSGGQSEEEASINLNAINKCPLLKPWALTFSYGRALQASALKAWGGKKENLKAAQEEYIKRALANSLACQGKYTPSGQSGAAASESLFISNHAY
# B3: Peroxiredoxin-1 (protein, UniProt Q63716 1-199)
# chain: MSSGNAKIGHPAPSFKATAVMPDGQFKDISLSDYKGKYVVFFFYPLDFTFVCPTEIIAFSDRAEEFKKLNCQVIGASVDSHFCHLAWINTPKKQGGLGPMNIPLVSDPKRTIAQDYGVLKADEGISFRGLFIIDDKGILRQITINDLPVGRSVDEILRLVQAFQFTDKHGEVCPAGWKPGSDTIKPDVNKSKEYFSKQK
# B4: Peroxiredoxin-2 (protein, UniProt P35704 1-198)
# chain: MASGNAHIGKPAPDFTGTAVVDGAFKEIKLSDYRGKYVVLFFYPLDFTFVCPTEIIAFSDHAEDFRKLGCEVLGVSVDSQFTHLAWINTPRKEGGLGPLNIPLLADVTKSLSQNYGVLKNDEGIAYRGLFIIDAKGVLRQITVNDLPVGRSVDEALRLVQAFQYTDEHGEVCPAGWKPGSDTIKPNVDDSKEYFSKHN
# B5: Phosphoglucomutase-1 (protein, UniProt P38652 1-562)
# chain: MVKIVTVKTQAYPDQKPGTSGLRKRVKVFQGNANYAENFIQSIVSTVEPALRQEATLVVGGDGRFYMTEAIQLIVRIAAANGIGRLVIGQNGILSTPAVSCIIRKIKAIGGIILTASHNPGGPNGDFGIKFNISNGGPAPEAITDKIFQISKTIEEYAICPDLKVDLGVLGKQQFDLENKFKPFTVEIVDSVEAYATMLRNIFDFNALKELLSGPNRLKIRIDAMHGVVGPYVKKILCEELGAPANSAVNCVPLEDFGGHHPDPNLTYAADLVETMKSGEHDFGAAFDGDGDRNMILGKHGFFVNPSDSVAVIAANIFSIPYFQQTGVRGFARSMPTSGALDRVANATKIASYETPTGWKFFGNLMDASKLSLCGEESFGTGSDHIREKDGLWAVLAWLSILATRKQRVEDILKDHWQKFGRNFFTRYDYEEVEAEGANKMMKDLEALMLDRSFVGKQFSANDKVYTVEKADNFEYSDPVDGSISKNQGLRLIFADGSRIIFRLSGTGSAGATIRLYIDSYEKDAAKINQDPQVMLAPLISIALKVSQLQERTGRTAPTVIT
# B6: Phosphatidylethanolamine-binding protein 1 (protein, UniProt P31044 1-187)
# chain: MAADISQWAGPLSLQEVDEPPQHALRVDYGGVTVDELGKVLTPTQVMNRPSSISWDGLDPGKLYTLVLTDPDAPSRKDPKFREWHHFLVVNMKGNDISSGTVLSEYVGSGPPKDTGLHRYVWLVYEQEQPLNCDEPILSNKSGDNRGKFKVESFRKKYHLGAPVAGTCFQAEWDDSVPKLHDQLAGK
# B7: Superoxide dismutase [Mn] (protein, UniProt P07895 25-222)
# chain: KHSLPDLPYDYGALEPHINAQIMQLHHSKHHATYVNNLNVTEEKYHEALAKGDVTTQVALQPALKFNGGGHINHSIFWTNLSPKGGGEPKGELLEAIKRDFGSFEKFKEKLTAVSVGVQGSGWGWLGFNKEQGRLQIAACSNQDPLQGTTGLIPLLGIDVWEHAYYLQYKNVRPDYLKAIWNVINWENVSQRYIVCKK
# B8: Carbamoyl-phosphate synthase [ammonia], mitochondrial (protein, UniProt P07756 39-1500)
# chain: LSVKAQTAHIVLEDGTKMKGYSFGHPSSVAGEVVFNTGLGGYSEALTDPAYKGQILTMANPIIGNGGAPDTTARDELGLNKYMESDGIKVAGLLVLNYSHDYNHWLATKSLGQWLQEEKVPAIYGVDTRMLTKIIRDKGTMLGKIEFEGQSVDFVDPNKQNLIAEVSTKDVKVFGKGNPTKVVAVDCGIKNNVIRLLVKRGAEVHLVPWNHDFTQMDYDGLLIAGGPGNPALAQPLIQNVKKILESDRKEPLFGISTGNIITGLAAGAKSYKMSMANRGQNQPVLNITNRQAFITAQNHGYALDNTLPAGWKPLFVNVNDQTNEGIMHESKPFFAVQFHPEVSPGPTDTEYLFDSFFSLIKKGKGTTITSVLPKPALVASRVEVSKVLILGSGGLSIGQAGEFDYSGSQAVKAMKEENVKTVLMNPNIASVQTNEVGLKQADAVYFLPITPQFVTEVIKAERPDGLILGMGGQTALNCGVELFKRGVLKEYGVKVLGTSVESIMATEDRQLFSDKLNEINEKIAPSFAVESMEDALKAADTIGYPVMIRSAYALGGLGSGICPNKETLMDLGTKAFAMTNQILVERSVTGWKEIEYEVVRDADDNCVTVCNMENVDAMGVHTGDSVVVAPAQTLSNAEFQMLRRTSINVVRHLGIVGECNIQFALHPTSMEYCIIEVNARLSRSSALASKATGYPLAFIAAKIALGIPLPEIKNVVSGKTSACFEPSLDYMVTKIPRWDLDRFHGTSSRIGSSMKSVGEVMAIGRTFEESFQKALRMCHPSVDGFTPRLPMNKEWPANLDLRKELSEPSSTRIYAIAKALENNMSLDEIVKLTSIDKWFLYKMRDILNMDKTLKGLNSESVTEETLRQAKEIGFSDKQISKCLGLTEAQTRELRLKKNIHPWVKQIDTLAAEYPSVTNYLYVTYNGQEHDIKFDEHGIMVLGCGPYHIGSSVEFDWCAVSSIRTLRQLGKKTVVVNCNPETVSTDFDECDKLYFEELSLERILDIYHQEACNGCIISVGGQIPNNLAVPLYKNGVKIMGTSPLQIDRAEDRSIFSAVLDELKVAQAPWKAVNTLNEALEFANSVGYPCLLRPSYVLSGSAMNVVFSEDEMKRFLEEATRVSQEHPVVLTKFIEGAREVEMDAVGKEGRVISHAISEHVEDAGVHSGDATLMLPTQTISQGAIEKVKDATRKIAKAFAISGPFNVQFLVKGNDVLVIECNLRASRSFPFVSKTLGVDFIDVATKVMIGESVDEKHLPTLEQPIIPSDYVAIKAPMFSWPRLRDADPILRCEMASTGEVACFGEGIHTAFLKAMLSTGFKIPQKGILIGIQQSFRPRFLGVAEQLHNEGFKLFATEATSDWLNANNVPATPVAWPSQEGQNPSLSSIRKLIRDGSIDLVINLPNNNTKFVHDNYVIRRTAVDSGIALLTNFQVTKLFAEAVQKARTVDSKSLFHYRQYSAGKAA
# B9: Betaine-homocysteine S-methyltransferase 1 (protein, UniProt O09171 1-407)
# chain: MAPIAGKKAKRGILERLNAGEVVIGDGGFVFALEKRGYVKAGPWTPEAAVEHPEAVRQLHREFLRAGSNVMQTFTFYASEDKLENRGNYVAEKISGQKVNEAACDIARQVADEGDALVAGGVSQTPSYLSCKSETEVKKIFHQQLEVFMKKNVDFLIAEYFEHVEEAVWAVEALKTSGKPIAATMCIGPEGDLHGVSPGECAVRLVKAGAAIVGVNCHFDPSTSLQTIKLMKEGLEAARLKAYLMSHALAYHTPDCGKQGFIDLPEFPFGLEPRVATRWDIQKYAREAYNLGVRYIGGCCGFEPYHIRAIAEELAPERGFLPPASEKHGSWGSGLDMHTKPWIRARARKEYWQNLRIASGRPYNPSMSKPDAWGVTKGAAELMQQKEATTEQQLRALFEKQKFKSAQ
# B10: Fructose-bisphosphate aldolase B (protein, UniProt P00884 1-364)
# chain: MAHRFPALTSEQKKELSEIAQRIVANGKGILAADESVGTMGNRLQRIKVENTEENRRQFRELLFSVDNSISQSIGGVILFHETLYQKDSQGKLFRNILKEKGIVVGIKLDQGGAPLAGTNKETTIQGLDGLSERCAQYKKDGVDFGKWRAVLRISDQCPSSLAIQENANALARYASICQQNGLVPIVEPEVLPDGDHDLEHCQYVSEKVLAAVYKALNDHHVYLEGTLLKPNMLTAGHACTKKYTPEQVAMATVTALHRTVPAAVPSICFLSGGMSEEDATLNLNAIYRCPLPRPWKLSFSYGRALQASALAAWGGKAANKKATQEAFMKRAVANCQAAQGQYVHTGSSGAASTQSLFTASYTY
# Target: human amyloid-β protein fragment (1–42) (human) (UniProt P05067)
# Test: affinity purification with mass spectrometry; amyloid-β 1–42 immobilized on Affi-Gel 10; cleared 3% Triton X-100 lysate of rat brain homogenate (control; also after 70 µM H2O2, 0.1 mM isatin or both, 37 °C, 30 min), overnight at 4 °C, 50 mM potassium phosphate pH 7.4; elution with 1 M glycine pH 2.8, 150 mM NaCl; LC-MS/MS; ligand-free Affi-Gel 10 as control; only the target purified
row,Binder,binding
1,B1,binds
2,B2,binds
3,B3,binds
4,B4,binds
5,B5,binds
6,B6,binds
7,B7,binds
8,B8,binds
9,B9,binds
10,B10,binds
